This is an account of results in article PMC5379069, “A Pseudomonas T6SS effector recruits PQS-containing outer membrane vesicles for iron acquisition” (Nature Communications, 2017).

Amino acid sequences for entries named in this document (tags omitted). A change or cut given only in a name is not applied to a line headed by its entry.
UniProt Q9I1A5: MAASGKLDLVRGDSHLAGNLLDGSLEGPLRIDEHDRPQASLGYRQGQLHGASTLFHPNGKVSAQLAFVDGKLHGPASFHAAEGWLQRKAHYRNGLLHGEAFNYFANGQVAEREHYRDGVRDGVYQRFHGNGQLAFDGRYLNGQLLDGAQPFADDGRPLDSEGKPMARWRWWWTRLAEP
UniProt Q9HVY9: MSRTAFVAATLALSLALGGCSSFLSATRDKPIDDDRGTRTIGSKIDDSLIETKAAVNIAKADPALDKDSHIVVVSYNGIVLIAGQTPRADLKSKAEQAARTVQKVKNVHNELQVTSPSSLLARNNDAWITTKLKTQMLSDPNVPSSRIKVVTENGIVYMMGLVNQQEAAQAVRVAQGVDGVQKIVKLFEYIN
UniProt Q9I1A6: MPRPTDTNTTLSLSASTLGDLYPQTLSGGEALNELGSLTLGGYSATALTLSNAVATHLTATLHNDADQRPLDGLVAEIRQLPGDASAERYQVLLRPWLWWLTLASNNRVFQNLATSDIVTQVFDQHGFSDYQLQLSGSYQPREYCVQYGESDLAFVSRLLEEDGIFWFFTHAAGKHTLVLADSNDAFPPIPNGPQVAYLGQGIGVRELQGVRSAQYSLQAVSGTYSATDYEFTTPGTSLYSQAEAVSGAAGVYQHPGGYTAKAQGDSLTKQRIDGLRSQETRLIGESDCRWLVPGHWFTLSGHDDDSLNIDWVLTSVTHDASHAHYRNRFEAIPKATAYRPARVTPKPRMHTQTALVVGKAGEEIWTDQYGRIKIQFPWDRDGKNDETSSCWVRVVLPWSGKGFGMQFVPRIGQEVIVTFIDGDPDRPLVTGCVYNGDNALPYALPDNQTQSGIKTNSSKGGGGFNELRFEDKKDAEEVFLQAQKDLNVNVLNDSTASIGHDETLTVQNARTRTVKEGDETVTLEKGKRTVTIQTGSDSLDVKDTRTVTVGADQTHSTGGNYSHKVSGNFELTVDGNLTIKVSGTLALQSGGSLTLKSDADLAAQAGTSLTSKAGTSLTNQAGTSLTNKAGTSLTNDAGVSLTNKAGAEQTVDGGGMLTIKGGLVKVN

No constants are given. Whether binding was seen depends on the method and setting. For some of these results: A result given as binding can be weak or reduced; the word gives no strength. For some of these results: Sequences can lack the tags named with a protein. For some of these results: Binding seen in cells or lysates may run through a third protein.

In assay [1] the target is GST-TseF (Pseudomonas aeruginosa PAO1) (UniProt Q9I1A5). The assay can be described thus: condition: 10 μg GST-fusion protein with 10 μg His-tagged protein; pull-down; 10 μg purified GST-fusion protein mixed with 10 μg His-tagged protein in PBS, 2 h at 4 °C; glutathione beads; washed five times with TEN buffer containing 500 mM NaCl; immunoblot; both purified.
For assay [2], the target named is T1, PA0533 (Pseudomonas aeruginosa PAO1) (UniProt Q9I603).
T1 sequence: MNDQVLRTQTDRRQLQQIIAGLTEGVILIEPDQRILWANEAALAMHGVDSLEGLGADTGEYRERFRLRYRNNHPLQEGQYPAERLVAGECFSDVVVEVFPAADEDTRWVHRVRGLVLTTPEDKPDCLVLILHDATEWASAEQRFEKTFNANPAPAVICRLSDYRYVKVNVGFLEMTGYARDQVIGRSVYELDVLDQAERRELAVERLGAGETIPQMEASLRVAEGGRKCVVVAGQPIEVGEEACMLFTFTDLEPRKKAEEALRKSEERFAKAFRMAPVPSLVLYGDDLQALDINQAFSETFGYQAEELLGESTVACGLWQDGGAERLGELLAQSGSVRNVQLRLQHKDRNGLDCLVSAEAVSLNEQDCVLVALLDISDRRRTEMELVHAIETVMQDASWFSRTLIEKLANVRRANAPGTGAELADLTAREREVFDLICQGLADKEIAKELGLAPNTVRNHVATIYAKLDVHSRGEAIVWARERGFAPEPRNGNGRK
The assay can be described thus: pull-down; only the target purified.

Assay [3] has as its target GST-TseF (Pseudomonas aeruginosa PAO1) (UniProt Q9I1A5). The assay can be described thus: pull-down; 10 μg purified GST-fusion protein mixed with 10 μg His-tagged protein in PBS, 2 h at 4 °C; glutathione beads; washed five times with TEN buffer containing 500 mM NaCl; immunoblot; both purified.

Turning to “PA4426 (recombinant) (from UniProt Q9HVY9)”, the binding result in assay [1] is on record as “no binding”.
Turning to VgrG3-VSVG (from UniProt Q9I1A6), the binding entry in assay [2] is “no binding”.

B1: FptA_(1–186) (domain or fragment, UniProt P42512 39-186)
chain: DARKDGETELPDMVISGESTSATQPPGVTTLGKVPLKPRELPQSASVIDHERLEQQNLFSLDEAMQQATGVTVQPFQLLTTAYYVRGFKVDSFELDGVPALLGNTASSPQDMAIYERVEILRGSNGLLHGTGNPAATVNLVRKRPQRE
On to B1, for which the binding result in assay [3] was “binds”.

B2: His6-OprF (protein, UniProt P13794 25-350)
chain: QGQNSVEIEAFGKRYFTDSVRNMKNADLYGGSIGYFLTDDVELALSYGEYHDVRGTYETGNKKVHGNLTSLDAIYHFGTPGVGLRPYVSAGLAHQNITNINSDSQGRQQMTMANIGAGLKYYFTENFFAKASLDGQYGLEKRDNGHQGEWMAGLGVGFNFGGSKAAPAPEPVADVCSDSDNDGVCDNVDKCPDTPANVTVDANGCPAVAEVVRVQLDVKFDFDKSKVKENSYADIKNLADFMKQYPSTSTTVEGHTDSVGTDAYNQKLSERRANAVRDVLVNEYGVEGGRVNAVGYGESRPVADNATAEGRAINRRVEAEVEAEAK
On to B2, for which, in assay [3], the binding result is listed as “binds”.
